Experimental data taken from PubChem BioAssay AID2099 (Broad Institute, 2009).
Several values for one entry are separate records, joined by “and”; a condition that tells them apart may be missing. Equal values may be shown once. Hit rate of the full screen: of about 330,000 compounds, about 230 (0.07%) were called active. Inconclusive means that the source gave no clear call. Such entries were picked first, then a sample of the others.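 Rule for the calls: active = more than half of a compound's replicate wells show inhibition beyond 50%, single wells judged on their own value; inconclusive = some, but no more than half, of replicates pass 50% inhibition; inactive = no replicate passes 50% inhibition.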

Sequences of proteins named here, by UniProt entry; tags and fusion partners are left off. Residues count along the entry.
UniProt Q9H3R0, 1-420 limits assumed: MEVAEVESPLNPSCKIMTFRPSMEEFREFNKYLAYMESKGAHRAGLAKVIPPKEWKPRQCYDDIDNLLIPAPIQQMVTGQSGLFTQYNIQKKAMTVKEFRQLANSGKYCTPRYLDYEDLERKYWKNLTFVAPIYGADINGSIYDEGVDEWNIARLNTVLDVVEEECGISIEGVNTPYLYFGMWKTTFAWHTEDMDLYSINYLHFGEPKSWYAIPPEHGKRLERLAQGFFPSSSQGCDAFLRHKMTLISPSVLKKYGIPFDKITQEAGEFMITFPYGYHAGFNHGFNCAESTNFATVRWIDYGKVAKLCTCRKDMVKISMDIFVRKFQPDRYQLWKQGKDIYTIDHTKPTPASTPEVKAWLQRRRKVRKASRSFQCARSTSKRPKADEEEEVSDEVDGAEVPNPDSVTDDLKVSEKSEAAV

What follows are compounds tested against Lysine-specific demethylase 4C (Homo sapiens) (UniProt Q9H3R0) (assay: JMJD2C H3K9me3 demethylation blockers – biochemical, fluorescence, DELFIA europium, primary screen (AID 2099;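 note: signal counts dimethyl H3K9 product captured on neutravidin plate; 0% = median of DMSO wells and 100% = 0.3 times that DMSO median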)). Settings: GST-JMJD2C(1-420) H3K9me3 demethylation, at 2.35 µM, stronger effect = higher value.
For NNc1n[nH]c(=S)n1N, the inhibition was inconclusive: -71.6%.
For Cc1ccc2c(c1)=C/C(=C\c1c(O)[nH]c(=O)[nH]c1=O)C(=O)N=2, the inhibition was active: 68.2%.
In the case of CC(=O)c1c(O)n(C2CCCCCC2)c(=O)[nH]c1=O, the inhibition is reported as inconclusive: -64.3%.
CCN(CC)CCCOC(=O)C(OC(C)C)(c1ccccc1)c1ccccc1 was tested, and the inhibition was inconclusive: -78.4%.
For O=C1NC(=O)N(Cc2ccccc2)C(=O)/C1=C\C=C\c1ccco1, the inhibition was inconclusive: -82.5%.
With O=C(CCC(=O)N1C[C@H]2C[C@@H](C1)c1cccc(=O)n1C2)NCc1cccc(C(F)(F)F)c1 the inhibition was inconclusive: -202%.
For CCCCCCOc1ccc(CN2CCN(CCO)CC2)cc1, the inhibition was inconclusive: -84.2%.
For CCn1c(O)c(C=NCc2ccccc2)c(=O)[nH]c1=S, the inhibition was inactive: -4.67%.
With CN=C(SCc1ccccc1)c1c(O)n(C)c(=O)n(C)c1=O the inhibition was inconclusive: -93.4%.
O=C(c1cc2cc(F)ccc2[nH]1)N1CCC2(CC1)OCCO2 was tested, and the inhibition was inconclusive: -157%.
With Cc1cccc(N2C(=O)NC(=O)/C(=C/c3ccc(N4CCOCC4)cc3)C2=O)c1 the inhibition was inactive: 36%.
With CCn1cc(CN2CCCC(C(=O)c3cccc(OC)c3)C2)c(C)n1 (stereo unspecified) the inhibition was inactive: -4.23%.
For C[C@]12CC[C@@H]3c4ccc(O)c(O)c4CC[C@H]3[C@@H]1CC[C@@H]2O, the inhibition was inconclusive: -59.4%.
For CCOC(=O)C1=CC(=C2C(=O)N(CC)C(=S)N(CC)C2=O)c2ccccc2O1, the inhibition was active: 52.6%.
For O=C1NC(=O)N(CC2CCCO2)C(=O)/C1=C/c1cccs1 (stereo unspecified), the inhibition was inactive: -1.67%.
In the case of O=C(O)CCn1cc(C=C2C(=O)NC(=S)NC2=O)c(-c2cccc(Br)c2)n1, the inhibition is reported as inconclusive: -89.5%.
In the case of O=C(c1cccnc1)c1cc2ccccc2[nH]1, the inhibition is reported as inactive: -4.15%.
In the case of COC(=O)C1=C(c2ccc(Cl)c(C(F)(F)F)c2)C[C@@H]2CC[C@H]1N2C(=O)NC1CCCCC1, the inhibition is reported as inactive: 4.35%.
With CC1CCCN(CC(=O)N2CCCc3ccccc32)C1 (stereo unspecified) the inhibition was inconclusive: -38.1%.
In the case of CCn1c(O)c(C=Nc2cc(Cl)ccc2Cl)c(=O)n(CC)c1=O, the inhibition is reported as inconclusive: -64.1%.
In the case of C/C=C(\C)C(=O)N[C@@H](c1ccccc1)[C@@H](O)C(=O)O[C@H]1C[C@@]2(O)[C@@H](OC(=O)c3ccccc3)C3[C@](C)(C(=O)[C@H](O)C(=C1C)C2(C)C)[C@@H](O)C[C@H]1OC[C@@]31OC(C)=O (stereo partly specified), the inhibition is reported as inconclusive: -319%.
With CCCOc1ccc(C(=O)NC(=S)N2C[C@H]3C[C@H](C2)c2cccc(=O)n2C3)cc1 the inhibition was inconclusive: -149%.
In the case of Cc1cc(C)c(-n2c(O)c(/C=N/NC(=O)c3ccncc3)c(=O)[nH]c2=O)c(C)c1, the inhibition is reported as inconclusive: -101%.
With O=C(Cn1nc(Cc2cccnc2)c2ccccc2c1=O)N1CCC2(CC1)OCCO2 the inhibition was inconclusive: -26.8%.
O=c1cccc2n1CC1CC2CN(c2nc(N3CCCCC3)nc(N3CCCCC3)n2)C1 (stereo unspecified) was tested, and the inhibition was inactive: 11.6%.
With CC(=NCCCn1ccnc1)c1c(O)n(C)c(=O)n(C)c1=O the inhibition was inconclusive: -106%.
CN1CCN(c2ccc(C=O)cc2)CC1 was tested, and the inhibition was active: 59.1%.
For O=C1NC(=O)C(=Cc2ccc(SC3CCCCC3)o2)C(=O)N1, the inhibition was inactive: 7.3%.
O=C1NC(=O)N(Cc2ccccc2Cl)C(=O)/C1=C/c1cccs1 was tested, and the inhibition was inconclusive: -114%.
With Cc1cc2c(C(C)C)c(O)c(O)c(C=O)c2c(O)c1-c1c(C)cc2c(C(C)C)c(O)c(O)c(C=O)c2c1O the inhibition was inconclusive: -106%.
CCSc1cc(C2C(C#N)=C(N)Oc3n[nH]c(C)c32)c(C)o1 (stereo unspecified) was tested, and the inhibition was inconclusive: -72.4%.
With O=C1NC(=O)N(Cc2ccc(F)cc2)C(=O)/C1=C\C=C\c1ccco1 the inhibition was active: 68.8%.
COc1ccc(-c2nn(Cc3ccccc3)cc2C(=O)NC2CC2)cc1OC was tested, and the inhibition was inactive: -0.976%.
For Cc1cc(/C=C2\C(=O)NC(=O)N(Cc3ccccc3Cl)C2=O)c(C)n1-c1ccc(C(=O)O)cc1, the inhibition was inconclusive: -116%.
For O=C(c1ccc(Br)cc1)C12CN3CN(CN(C3)C1)C2, the inhibition was inconclusive: -67.7%.
For O=C1NC(=O)C2(Cc3c(nc4ccccn4c3=O)N3CCCCCC32)C(=O)N1Cc1ccccc1 (stereo unspecified), the inhibition was inactive: -5.05%.
In the case of CN1C(=O)CN=C(c2ccc(Cl)cc2)c2cc(Cl)ccc21, the inhibition is reported as inconclusive: -35%.
Cc1c(C)c2ccc(OCC(=O)N3CCC(C(=O)O)(c4ccccc4)CC3)c(C)c2oc1=O was tested, and the inhibition was inconclusive: -279%.
For CC[n+]1c(/C=C/N(C)c2ccccc2)sc2ccc(Cl)cc21, the inhibition was inactive: 13.7%.
For Cc1cc(=O)oc2cc(OCC(=O)N3CCC(C(=O)O)(c4ccccc4)CC3)ccc12, the inhibition was inconclusive: -327%.
For COc1ccc(CN2C(=O)NC(=O)/C(=C/c3cc(OC)c(OC)c(OC)c3)C2=O)cc1, the inhibition was inactive: -8.65%.
In the case of Cc1nccc2c1[nH]c1ccc(Br)cc12, the inhibition is reported as inconclusive: -320%.
CC(=O)N1CCN(c2ccc([N+](=O)[O-])cc2C=C2C(=O)NC(=O)NC2=O)CC1 was tested, and the inhibition was inconclusive: -96.6%.
CCOC(=O)N1CCC(NC(=O)CCc2nc(C3=CCN(C)CC3)no2)CC1 was tested, and the inhibition was active: 52.8%.
With N#Cc1cc(F)c(N2CCNCC2)cc1Cl the inhibition was inconclusive: -103%.
For O=c1c2ccccc2[se]n1-c1ccccc1, the inhibition was inactive: -11.9%.
CC(C)(C)C(O)C(Oc1ccc(Cl)cc1)n1cncn1 (stereo unspecified) was tested, and the inhibition was inactive: 18.9%.
With CN1C(=O)C(Cc2ccsc2)C(=O)N(C)C1=O the inhibition was active: 73.9%.
With Cc1ccc(S(=O)(=O)CC(C)(O)C(=O)Nc2cccc(C(F)(F)F)c2)cc1 (stereo unspecified) the inhibition was inconclusive: -162%.
O=C(/C=C/c1ccc(F)cc1)NC(=S)N1C[C@H]2C[C@H](C1)c1cccc(=O)n1C2 was tested, and the inhibition was inconclusive: -228%.
With C=CCn1c(C)c(C=C2C(=O)NC(=O)NC2=O)c2ccccc21 the inhibition was active: 50.1%.
O=C1N(c2nncs2)CCN1[N+](=O)[O-] was tested, and the inhibition was inactive: 1.73%.
COc1ccc(NC(=O)N2C[C@@H]3C[C@@H](C2)c2cccc(=O)n2C3)c(OC)c1 was tested, and the inhibition was inconclusive: -472%.
With O=C1NC(=O)N(c2ccc3c(c2)OCO3)C(=O)/C1=C/c1ccsc1 the inhibition was inconclusive: -128%.
Cc1cc(C)cc(OCCOc2cccc(C=C3C(=O)NC(=O)NC3=O)c2)c1 was tested, and the inhibition was active: 67.7%.
With Cc1cc(C)n(CCOC(=O)C2C(C=C(Cl)Cl)C2(C)C)n1 (stereo unspecified) the inhibition was inactive: -3.88%.
For COC(=O)C1=C(c2ccc(Cl)c(C(F)(F)F)c2)C[C@@H]2CC[C@H]1N2C(=O)N1CCC(C)CC1, the inhibition was inactive: 3.86%.
With COCc1cc(OC(=O)N(C)C)nc2c1c(C)nn2C the inhibition was active: 62.8%.
With C=CCn1c(O)c(C(CC)=NCc2ccco2)c(=O)[nH]c1=O the inhibition was inconclusive: -26.6%.
In the case of C[N+]1(C)CCc2cc3c(cc2[C@H]1[C@@H]1OC(=O)c2c1ccc1c2OCO1)OCO3, the inhibition is reported as inactive: 1.42% and inactive: -4.85% and inactive: -18.1%.
With COc1cccc(-n2c(O)c(C=Nc3c(C)n(C)n(-c4ccccc4)c3=O)c(=O)[nH]c2=O)c1 the inhibition was inconclusive: -54.7%.
For O=C1NC(=O)C(C(CC(=O)c2ccccc2)c2ccccc2)C(=O)N1 (stereo unspecified), the inhibition was active: 53.1%.
In the case of Cc1c(C(=O)C(=O)N2CCC3(CC2)OCCO3)c2ccccc2n1C, the inhibition is reported as inactive: 7.83%.
Cc1ccc(/C=C2/C(=O)NC(=O)N(C)C2=O)cc1 was tested, and the inhibition was inconclusive: -95.6%.
O=C1NC(=O)C2(Cc3ccccc3N3CCCC32)C(=O)N1Cc1ccccc1 (stereo unspecified) was tested, and the inhibition was inconclusive: -150%.
O=c1c2ccccc2nc(/C=C/c2ccc3c(c2)OCO3)n1-c1ccccc1 was tested, and the inhibition was inconclusive: -31%.
